These are yes or no findings as the source states them, for the method shown. Some results given as binding are weak or reduced against the parent protein; the word gives no strength.
Target: T1, full-length human KIF5A, C-terminal mScarlet-StrepII (human), Q12840
T1 chain: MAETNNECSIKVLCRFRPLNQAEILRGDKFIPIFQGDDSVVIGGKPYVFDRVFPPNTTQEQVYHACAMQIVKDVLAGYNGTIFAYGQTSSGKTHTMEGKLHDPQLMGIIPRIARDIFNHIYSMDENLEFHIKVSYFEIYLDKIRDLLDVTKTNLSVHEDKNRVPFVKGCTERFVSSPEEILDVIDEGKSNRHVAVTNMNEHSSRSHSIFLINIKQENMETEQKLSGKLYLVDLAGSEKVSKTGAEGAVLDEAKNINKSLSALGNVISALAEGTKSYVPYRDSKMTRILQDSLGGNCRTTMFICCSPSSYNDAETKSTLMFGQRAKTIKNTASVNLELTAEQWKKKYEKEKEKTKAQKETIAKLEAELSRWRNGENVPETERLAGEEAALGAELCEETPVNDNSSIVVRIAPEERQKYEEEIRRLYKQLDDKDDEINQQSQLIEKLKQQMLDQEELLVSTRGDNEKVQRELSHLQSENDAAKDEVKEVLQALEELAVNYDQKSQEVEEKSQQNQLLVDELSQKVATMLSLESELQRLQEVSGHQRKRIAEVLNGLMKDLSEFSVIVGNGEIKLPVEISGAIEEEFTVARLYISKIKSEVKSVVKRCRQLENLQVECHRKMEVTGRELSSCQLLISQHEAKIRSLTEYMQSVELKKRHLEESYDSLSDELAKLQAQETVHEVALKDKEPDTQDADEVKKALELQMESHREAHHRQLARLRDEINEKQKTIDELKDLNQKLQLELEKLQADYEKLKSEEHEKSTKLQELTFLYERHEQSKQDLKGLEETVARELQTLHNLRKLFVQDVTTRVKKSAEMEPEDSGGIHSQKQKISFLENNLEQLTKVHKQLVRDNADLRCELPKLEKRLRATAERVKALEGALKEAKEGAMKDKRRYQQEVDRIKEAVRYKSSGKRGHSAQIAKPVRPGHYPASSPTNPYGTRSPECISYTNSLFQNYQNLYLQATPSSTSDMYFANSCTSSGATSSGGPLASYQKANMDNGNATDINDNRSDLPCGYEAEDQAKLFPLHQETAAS
Assay: SEC-MALS
Conditions: remark: other sources report otherwise

binding: binds
B1: full-length human KIF5A, C-terminal mScarlet-StrepII, Q12840 1-1032 (natural protein)
chain: MAETNNECSIKVLCRFRPLNQAEILRGDKFIPIFQGDDSVVIGGKPYVFDRVFPPNTTQEQVYHACAMQIVKDVLAGYNGTIFAYGQTSSGKTHTMEGKLHDPQLMGIIPRIARDIFNHIYSMDENLEFHIKVSYFEIYLDKIRDLLDVTKTNLSVHEDKNRVPFVKGCTERFVSSPEEILDVIDEGKSNRHVAVTNMNEHSSRSHSIFLINIKQENMETEQKLSGKLYLVDLAGSEKVSKTGAEGAVLDEAKNINKSLSALGNVISALAEGTKSYVPYRDSKMTRILQDSLGGNCRTTMFICCSPSSYNDAETKSTLMFGQRAKTIKNTASVNLELTAEQWKKKYEKEKEKTKAQKETIAKLEAELSRWRNGENVPETERLAGEEAALGAELCEETPVNDNSSIVVRIAPEERQKYEEEIRRLYKQLDDKDDEINQQSQLIEKLKQQMLDQEELLVSTRGDNEKVQRELSHLQSENDAAKDEVKEVLQALEELAVNYDQKSQEVEEKSQQNQLLVDELSQKVATMLSLESELQRLQEVSGHQRKRIAEVLNGLMKDLSEFSVIVGNGEIKLPVEISGAIEEEFTVARLYISKIKSEVKSVVKRCRQLENLQVECHRKMEVTGRELSSCQLLISQHEAKIRSLTEYMQSVELKKRHLEESYDSLSDELAKLQAQETVHEVALKDKEPDTQDADEVKKALELQMESHREAHHRQLARLRDEINEKQKTIDELKDLNQKLQLELEKLQADYEKLKSEEHEKSTKLQELTFLYERHEQSKQDLKGLEETVARELQTLHNLRKLFVQDVTTRVKKSAEMEPEDSGGIHSQKQKISFLENNLEQLTKVHKQLVRDNADLRCELPKLEKRLRATAERVKALEGALKEAKEGAMKDKRRYQQEVDRIKEAVRYKSSGKRGHSAQIAKPVRPGHYPASSPTNPYGTRSPECISYTNSLFQNYQNLYLQATPSSTSDMYFANSCTSSGATSSGGPLASYQKANMDNGNATDINDNRSDLPCGYEAEDQAKLFPLHQETAAS

Reference: publication doi:10.1101/2021.03.12.434960
